Data from publication PMC6879534, “Structural basis for DNA unwinding at forked dsDNA by two coordinating Pif1 helicases” (Nature Communications, 2019).

Molecular target: BaPif1 wild type (UniProt A0A373G551)
Test: crystal structure (3.3 A)
Details: ADP-AlF4-, protein:DNA 4:1; crystals: 80 mM NaCl, 40 mM sodium cacodylate pH 6.0, 35% MPD, 12 mM spermine, 16 C; recombinant protein

Sequence: TTTTTTTTTTCGCGCGCGCGTTTTTTTTTT / TTTTTTTTTTCGCGCGCGCGTTTTTTTTTT [dT10-fdsDNA (10dT-fdsDNA)]
- binding result: binds

Construct, isoform or probe ends are uncertain for at least one entry.
